From PMC7360774 come the findings set out here.

The chains behind the UniProt entries cited, without tags or fusion partners.
UniProt P35579: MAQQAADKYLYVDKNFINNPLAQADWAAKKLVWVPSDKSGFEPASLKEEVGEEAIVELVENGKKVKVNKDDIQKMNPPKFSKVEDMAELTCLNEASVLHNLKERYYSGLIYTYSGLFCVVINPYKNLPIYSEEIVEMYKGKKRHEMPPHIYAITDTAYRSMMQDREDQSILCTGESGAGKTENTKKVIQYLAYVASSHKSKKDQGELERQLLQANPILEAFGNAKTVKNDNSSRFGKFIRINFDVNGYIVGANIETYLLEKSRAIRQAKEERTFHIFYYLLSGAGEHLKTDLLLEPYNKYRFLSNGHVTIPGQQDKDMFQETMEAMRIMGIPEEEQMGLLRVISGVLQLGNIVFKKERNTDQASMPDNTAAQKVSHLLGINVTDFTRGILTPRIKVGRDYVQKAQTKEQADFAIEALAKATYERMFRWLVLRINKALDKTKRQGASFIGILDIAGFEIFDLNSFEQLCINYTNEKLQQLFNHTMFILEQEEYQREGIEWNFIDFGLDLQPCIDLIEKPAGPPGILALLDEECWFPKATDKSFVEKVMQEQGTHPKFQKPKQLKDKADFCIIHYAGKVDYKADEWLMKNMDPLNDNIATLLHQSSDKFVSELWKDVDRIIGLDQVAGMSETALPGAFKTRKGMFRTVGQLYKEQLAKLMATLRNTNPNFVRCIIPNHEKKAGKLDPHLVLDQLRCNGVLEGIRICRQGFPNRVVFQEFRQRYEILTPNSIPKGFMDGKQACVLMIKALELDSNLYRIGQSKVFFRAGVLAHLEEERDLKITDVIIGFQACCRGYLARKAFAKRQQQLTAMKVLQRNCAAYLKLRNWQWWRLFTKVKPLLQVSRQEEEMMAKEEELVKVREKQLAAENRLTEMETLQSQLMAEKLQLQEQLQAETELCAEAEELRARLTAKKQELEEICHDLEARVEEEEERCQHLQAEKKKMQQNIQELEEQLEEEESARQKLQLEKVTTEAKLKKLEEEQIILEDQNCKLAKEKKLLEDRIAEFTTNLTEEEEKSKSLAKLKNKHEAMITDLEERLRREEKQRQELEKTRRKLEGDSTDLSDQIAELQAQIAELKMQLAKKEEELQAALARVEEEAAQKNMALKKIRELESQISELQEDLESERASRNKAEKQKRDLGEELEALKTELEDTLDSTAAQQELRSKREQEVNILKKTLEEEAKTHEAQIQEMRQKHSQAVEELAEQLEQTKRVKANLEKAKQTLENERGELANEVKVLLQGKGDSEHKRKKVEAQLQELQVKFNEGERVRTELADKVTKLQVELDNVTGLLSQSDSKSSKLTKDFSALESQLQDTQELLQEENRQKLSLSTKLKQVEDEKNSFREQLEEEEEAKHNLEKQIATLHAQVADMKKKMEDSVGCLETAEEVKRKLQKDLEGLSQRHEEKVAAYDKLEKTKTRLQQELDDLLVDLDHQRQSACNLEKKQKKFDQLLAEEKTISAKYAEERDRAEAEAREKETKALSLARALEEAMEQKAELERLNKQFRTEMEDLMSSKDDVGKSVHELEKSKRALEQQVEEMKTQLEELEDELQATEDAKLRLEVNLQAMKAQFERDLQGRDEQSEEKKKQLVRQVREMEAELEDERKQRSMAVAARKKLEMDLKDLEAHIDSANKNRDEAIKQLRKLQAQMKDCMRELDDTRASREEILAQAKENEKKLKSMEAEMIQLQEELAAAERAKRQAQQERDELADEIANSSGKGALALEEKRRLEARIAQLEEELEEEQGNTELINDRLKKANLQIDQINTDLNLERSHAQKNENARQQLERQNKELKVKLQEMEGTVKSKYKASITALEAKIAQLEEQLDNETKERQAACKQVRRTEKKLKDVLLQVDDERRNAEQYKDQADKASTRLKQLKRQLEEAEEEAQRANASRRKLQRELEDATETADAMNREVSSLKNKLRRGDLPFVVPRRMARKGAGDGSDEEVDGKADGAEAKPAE

No constants are given. Whether binding was seen depends on the method and setting. In cells and extracts the contact can be indirect. Some results given as binding are weak or reduced against the parent protein; the word gives no strength. For some assays here: Sequences can lack the tags named with a protein.

In experiment [1] the target is T1, GST-NudCL2 (human) (UniProt Q8WVJ2).
T1 sequence: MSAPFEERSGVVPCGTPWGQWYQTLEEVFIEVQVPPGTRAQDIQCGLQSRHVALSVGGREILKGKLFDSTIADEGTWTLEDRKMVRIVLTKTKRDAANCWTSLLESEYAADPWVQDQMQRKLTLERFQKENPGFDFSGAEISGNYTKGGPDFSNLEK
Kind of experiment: pull-down; purified GST or GST-NudCL2 incubated with A549 cell lysates; immunoblot with anti-Myosin-9 antibody; only the target purified. For orientation: Immunoblotting shows a protein as a band on a membrane.

The target in experiment [2] is T2, NudC-like protein 2 (NudCL2), endogenous (human (endogenous in A549)) (UniProt Q8WVJ2).
T2 sequence: T1 sequence
In words: co-IP; endogenous proteins, A549 whole-cell extracts in TBSN buffer (20 mM Tris pH 8.0, 150 mM NaCl, 0.5% Nonidet P-40, 5 mM EGTA, 1.5 mM EDTA); immunoprecipitation with the indicated antibodies, western blot.

Regarding “myosin-9 (endogenous, A549) (from UniProt P35579 1-1960)”, the binding entry in experiment [1] and in experiment [2] was “binds” throughout.
